Experimental findings from paper PMC8692147 are described below.

Test [1] concerns the target T1, CRYAB-mCherry (αB-crystallin fused to mCherry) (UniProt P02511).
T1 sequence: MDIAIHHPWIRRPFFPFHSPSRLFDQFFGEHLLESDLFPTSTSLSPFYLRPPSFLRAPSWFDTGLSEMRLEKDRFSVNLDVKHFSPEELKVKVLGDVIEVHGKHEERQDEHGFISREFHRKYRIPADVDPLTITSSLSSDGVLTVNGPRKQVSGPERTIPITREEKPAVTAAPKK
The test can be described thus: FRET or BRET; sensitized emission (FRET-SE) in HUVECs co-transfected with an eGFP fusion (donor) and an mCherry fusion (acceptor); Leica SP8 confocal microscope; calibrated with negative control, donor only and acceptor only groups; compared with GFP-NC & mCherry-NC. (In general: Bioluminescence resonance energy transfer reports proximity on the nanometre scale.)

Test [2] concerns the target VEGFA-mCherry (VEGFA165 fused to mCherry). The description is as above.

No constants are given. Whether binding was seen depends on the method and setting. In cells and extracts the contact can be indirect. A result given as binding can be weak or reduced; the word gives no strength. Where a sequence is shown, tags or fusion partners need not be part of it.

For VEGFA-eGFP (VEGFA165 fused to eGFP), the binding result in test [1] is given as “binds”.

B1: LBH-eGFP (limb-bud and heart protein fused to eGFP) (protein, UniProt Q53QV2 1-105)
chain: MSIYFPIHCPDYLRSAKMTEVMMNTQPMEEIGLSPRKDGLSYQIFPDPSDFDRCCKLKDRLPSIVVEPTEGEVESGELRWPPEEFLVQEDEQDNCEETAKENKEQ
Take B1: the binding entry in test [2] was “binds”.
